Measured values taken from patent US20100022556A1, “Therapeutic combinations comprising a long acting dihydropyridine calcium-channel blocker and a statin” (CHIESI FARMACEUTICI S.P.A., priority 2005, published 2010).
For at least one compound, name, drawing or mass did not settle the structure.

What was measured:
[1] = system: plasma tissue plasminogen activator (t-PA); assay: Plasma t-PA activity in hypertensive, hypercholesterolemic patients; format: in vivo, human; settings: 12 week treatment
Method: The aim of this study was to evaluate the effect of the manidipine-simvastatin combination on plasma tissue plasminogen activator (t-PA) and inhibitor (PAI-1) activity, on plasma intercellular adhesion molecule type-1 (ICAM-1) and on serum C-reactive protein (CRP) in hypertensive, hypercholesterolemic patients.
After 4 week placebo run-in period, 30 hypertensive hypercholesterolemic patients were randomized to a manidipine 20 mg or simvastatin 40 mg or a manidipine-simvastatin fixed combination treatment, according to 3×3 cross-over design; each treatment had 12 week duration.
The last day of the placebo run-in period and of each treatment period blood pressure was measured and a venous blood sample was taken (at the same hour in the morning) to evaluate plasma t-PA and PAI-1 activity, TC plasma, ICAM-1 and CRP.

[2] = system: perfused rat heart preparations submitted to ischemia-reperfusion; assay: Myocardial ischemia-reperfusion damage, perfused hearts from orally treated rats; format: in vivo, Male Wistar rats; settings: oral gavage once a day for 5 days; manidipine 1 and 3 mg/kg, simvastatin 1 mg/kg, alone or combined
Method: The hearts were excised from rats orally treated for 5 consecutive days with manidipine and simvastatin alone or in combination. […] Data are means±SEM of 8 hearts per group. *P<0.05, **P<0.01, ***P<0.001 vs control; #P<0.01 vs simvastatin alone.
The aim of this study was to evaluate the protective effects of the manidipine-simvastatin combination against myocardial ischemia-reperfusion damage in the rat.
The study was performed according to a method described previously (Rossoni G et al Pharmacol Exp Ther. 2003 307(2), 633-9).
Male Wistar rats were randomly divided into six groups (n=6-8 rats per group). Manidipine (1 mg/kg and 3 mg/kg) simvastatin (1 mg/kg) were administered alone or in combination by oral gavage once a day for five consecutive days.
The following parameters were determined:
i) the left ventricular end-diastolic pressure (LVEDP) and the left ventricular developed pressure (LVDevP; peak left ventricular systolic pressure minus LVEDP);
ii) the activities of creatine kinase (CK) and lactate dehydrogenase (LDH) in the heart perfusate.
The data were expressed as mean±S.E.M (standard error of the mean).

[3] = system: ischemic-reperfused myocardium; settings: isolated rat hearts; simvastatin: normocholesterolemic rat hearts; cited from earlier work
serum total cholesterol = settings: cited from earlier work

Row | SMILES | change in t-PA activity vs placebo [1] | rise in LVEDP during ischemia and reperfusion [2] | protection of ischemic-reperfused myocardium [3] | serum total cholesterol level after pravastatin treatment (serum total cholesterol; from 251.4 mg/dl, patients on dihydropyridine CCBs) [mg/dL] | extent of reduction of serum total cholesterol (serum total cholesterol; patients on dihydropyridine CCBs) | extent of reduction of serum total cholesterol, pravastatin alone (serum total cholesterol; reported in the prior art for pravastatin alone)
1 | CCC(C)(C)C(=O)O[C@H]1C[C@@H](C)C=C2C=C[C@H](C)[C@H](CC[C@@H]3C[C@@H](O)CC(=O)O3)[C@H]21 [Simvastatin, simvastatin] | did not affect significantly | almost similar to that of vehicle-treated rats | preserves the ischemic-reperfused myocardium |  |  | 
2 | CC[C@H](C)C(=O)O[C@H]1C[C@H](O)C=C2C=C[C@H](C)[C@H](CC[C@@H](O)C[C@@H](O)CC(=O)O)[C@H]21 [pravastatin] |  |  |  | 218.2 | about 13% | more than 20%
